For some of these results: At least one structure is not confirmed: it was looked up by name or label, or the drawing left a doubt. Some entries share one result that the patent states for a list of compounds.
Assays:
[1] = test system: human whole blood basophils; assay: whole blood basophil assay, CD63 after anti-IgE stimulation; format: cell-based; conditions: listed as (E)-1-(R)-3-(4-amino-3-(4-phenoxyphenyl)-1H-pyrazolo[3,4-d]pyrimidin-1-yl)pyrro, read-out: EC50 of inhibition of anti-IgE mediated upregulation of CD63
Procedure: Fresh whole blood was collected on the day of the experiment from a healthy volunteer. Whole blood is stimulated with 10 ng/mL of rhIL-3 (Invitrogen) and […] of anti-IgE (Beckman Coulter) in Basophil Stimulation Buffer (20 mM HEPES pH 7.4, 125 mM NaCl, 5 mM KCl, 2.5 mM CaCl2, 1 mM MgCl2, 0.5% Glucose, 0.1% BSA) at 37° C. for 15 min. The reaction was terminated by the addition of EDTA. The stimulated whole blood was then stained with a fluorescent three-antibody cocktail (FITC-Anti-CD63/PerCP-Anti-HLA-DR/PE-Anti-CD123) (BD Biosciences) at room temperature in the dark for 15 min. Following staining, blood was treated with 1×FACS Lysing solution (BD Biosciences) for 15 minutes to lyse the RBC. The lysed RBC supernatant was removed following centrifugation for […]. The cell pellet was resuspended and fixed in 0.5% paraformaldehyde in PBS. The percentage of basophil degranulation was determined by the % of CD63 cells that were CD123 positive and HLA-DR negative.

[2] = test system: CD3+ T cells; assay: T cell activation (CD69) following anti-CD3/CD28 stimulation; format: cell-based, human; conditions: for concentration up to which T cell activation (CD69 expression) was not inhibited: anti-CD3/28 stimulation, washout experiments, FIG. 8
[3] = test system: RAW264.7 cells; assay: IgG mediated phagocytosis of Zymosan particles; format: cell-based, murine; conditions: IgG opsonized Zymosan particles, RAW cells
Procedure: Prelabeled Zymosan particles were first opsonized with mouse IgG at 37 C for 30 min, and then centrifuged down and washed several times with PBS. The Zymosan particles are the resuspended in PBS.

[4] = test system: murine collagen-antibody-induced arthritis model (CAIA model); assay: murine collagen-antibody-induced arthritis model (CAIA model); format: in vivo, DBA/1 mice; conditions: 0.2 mg/kg
Procedure: DBA/1 mice were injected intravenously with 2 mg of Arthrogen-CIA 5 mouse anti-bovine collagen (Chondrex) on day 0. Three days later, these mice were injected IP with 50 μg of LPS.
Mice were monitored for clinical symptoms daily with the criteria below.
0=normal 1=1 hind or fore paw joint affected 2=2 hind or fore paw joints affected 3=3 hind or fore paw joints affected 4=moderate (erythema and moderate swelling, or =4 digit joints affected) 5=severe (diffuse erythema and severe swelling entire paw, unable to flex digits)

CN(C)C/C=C/C(=O)N1CC[C@@H](n2nc(-c3ccc(Oc4ccccc4)cc3)c3c(N)ncnc32)C1 [Compound 1]
EC50 [1]: 0.02 to 0.1 µM
concentration up to which T cell activation was not inhibited [2]: > 2,000 nM
concentration up to which T cell activation (CD69 expression) was not inhibited [2]: > 2000 nM

C=CC(=O)N1CCC[C@@H](n2nc(-c3ccc(Oc4ccccc4)cc3)c3c(N)ncnc32)C1 [Compound 2, reference compound]
concentration up to which IgG-mediated phagocytosis was not inhibited [3]: > 10,000 nM
concentration up to which T cell activation was not inhibited [2]: > 2,000 nM
concentration up to which T cell activation (CD69 expression) was not inhibited [2]: > 2000 nM

C[C@@H]1C[C@H]2[C@@H]3CCC4=CC(=O)C=C[C@]4(C)[C@@]3(F)[C@@H](O)C[C@]2(C)[C@@]1(O)C(=O)CO [dexamethasone]
clinical scores [4]: partially suppress clinical scores

Reference: US20120053189A1, “BTK INHIBITORS FOR THE TREATMENT OF IMMUNE MEDIATED CONDITIONS” (Pharmacyclics, Inc., priority 2010, published 2012)
